Where “and” joins values, the source holds several entries; their conditions need not be identical. Identical values can stand only once. This is one part of the list. Single values are uncertain here, since repeats match poorly.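 HEK293T cells were given each compound shortly before transfection with a reporter in which red mCherry is followed by the SARS-CoV-2 frameshift element and then GFP in the −1 frame, so GFP appears only after frameshifting.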

The text below walks through data of the supplement of paper PMC8256030.

This test concerns HEK293T. The test can be described thus: percent viability (nuclei count) relative to control; higher = more viable cells. As to conditions: 10 µM; 24 h.
As to `COc1cc(NS(C)(=O)=O)ccc1Nc1c2ccccc2nc2ccccc12`, the percent viability was determined as 162%. As for `O=C(O)c1ccccc1`, the figure is 398%; as for `CCOC(=O)CCC(=O)O[C@H]1[C@H](O[C@@H]2[C@@H](C)[C@H](O[C@H]3C[C@@](C)(OC)[C@@H](O)[C@H](C)O3)[C@@H](C)C(=O)O[C@H](CC)[C@@](C)(O)[C@H](O)[C@@H](C)C(=O)[C@H](C)C[C@@]2(C)O)O[C@H](C)C[C@@H]1N(C)C`, 174%. For `COc1ccccc1OCC(O)CN1CCN(CC(=O)Nc2c(C)cccc2C)CC1` (configuration not stated) [ranolazine], the percent viability was 213% and 241%. Turning to `COc1ccc(CCNCC(O)COc2cccc(C)c2)cc1OC` (configuration not stated) [bevantolol], the percent viability worked out at 322%. The result for `C#C[C@]1(O)CC[C@H]2[C@@H]3CCC4=CCCC[C@@H]4[C@H]3CC[C@@]21C` [lynestrenol] reads 25.2%; that for `Nc1nc2c(ncn2COC(CO)CO)c(=O)[nH]1` [ganciclovir], 308%; that for `NCc1ccccc1CC(=O)N[C@@H]1C(=O)N2C(C(=O)O)=C(CSc3nnnn3CC(=O)O)CS[C@H]12` [Ceforanide], 264%. As to `COc1cc(O)c(C(=O)c2ccccc2)cc1S(=O)(=O)O`, the percent viability came to 206%. Regarding `CO[C@@H]1[C@H](OC(=O)/C=C/C=C/C=C/C=C/C(=O)O)CC[C@]2(CO2)[C@H]1[C@@]1(C)O[C@@H]1CC=C(C)C` [Fumagillin], the percent viability stood at 306%. In the case of `NC(=O)c1cc[n+](CC2=C(C(=O)O)N3C(=O)[C@@H](NC(=O)[C@@H](c4ccccc4)S(=O)(=O)[O-])[C@H]3SC2)cc1`, the percent viability came out at 298%. On to `Cc1cc(C)cc(NC(=O)Cc2ccc(OC(C)(C)C(=O)O)cc2)c1` [efaproxiral], for which the percent viability came out at 218%.
